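Uptake of anthrax lethal toxin into cultured cells, read by FRET (460/530 nm ratio) and reported from the 460 nm channel; the cell line is not named here.
Each compound was tested as a concentration series from about 0.0005 to 40 µM.
The number is the fitted AC50 of the 460 nm signal alone; lower values mean a more potent effect. A falling signal goes with compounds filed as inhibitors or cytotoxic, a rising one with activators or fluorescent compounds (inferred from the filed classes).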

Values are in µM.
Common to all entries: measured here: 460 nm channel.
This is a side read-out of the assay, for part of the compounds, not drawn at random.
A potency from a partial, single-point or poor curve is only a rough figure.
The first word of each remark tells which way the curve ran; it can be opposite to the aim of the assay.

compound,AC50 (µM),remark
C=C(C)CSc1nnc(-c2ccccc2)n1N,0.1,"rising, full curve"
COc1cccc2cc(C(=O)N3CCN(c4ccccc4F)CC3)c(=O)oc12,5.012,"rising, single point"
CCCOC(=O)c1ccc(Oc2c(-c3ccc(OCC)cc3O)n[nH]c2C)cc1,19.95,"falling, single point"
O=C(NCc1cccs1)c1ccc2c(c1)OCCO2,0.7943,"falling, partial curve, poor fit"
COc1ccc(S(=O)(=O)c2ccc(OC)c(OC)c2)cc1OC,25.12,"rising, single point"
C=C(CC1([C@@H](NP(=O)(c2ccccc2)c2ccccc2)[C@H]2C[C@@H]2CCCC)CC1)c1ccccc1,3.162,"falling, single point"
Nn1c(COc2cccc(Br)c2)nnc1SCC(=O)N1CCc2ccccc2C1,1.585,"rising, partial curve"
N#Cc1ccccc1-c1ccc2ncnc(NCc3cccs3)c2c1,6.31,"falling, partial curve"
COc1ccc(-c2c3c(=O)n(C)c(=O)n(C)c3cn2-c2cccc(OC)c2)cc1,12.59,"rising, single point"
COc1ccc(C(=O)c2c(C)n(CCN3CCOCC3)c3cc(I)ccc23)cc1,25.12,"falling, partial curve"
O=C(NCc1ccc2c(c1)OCO2)c1ccc2c(=O)n(C3CCCC3)c(=O)[nH]c2c1,5.012,"rising, single point"
FC(F)(F)c1cc(CN2CCC3(CCNCC3)CC2)cc(C(F)(F)F)c1,3.981,"falling, full curve"
CCN(CC)C(=O)CSc1nnc(CCCCCNC(=O)OC(C)(C)C)o1,3.981,"falling, full curve"
CN(C)C(=O)C(CCN1CCC(O)(c2ccc(Cl)cc2)CC1)(c1ccccc1)c1ccccc1,0.1995,"rising, full curve, poor fit"
O=C(Nc1cccnc1)c1cccs1,0.003162,"falling, full curve"
Cn1cccc1C(=O)NC(=O)COC(=O)Cc1coc2ccc3ccccc3c12,31.62,"falling, single point"
CCOC(=O)CSCc1nc(-c2ccc(Cl)cc2)oc1C,12.59,"falling, single point"
CC(C)(C)OC(=O)N[C@@H](Cc1ccccc1)c1nnc(SCC(=O)O)o1,31.62,"rising, single point"
CC1N(P(=O)(c2ccccc2)c2ccccc2)CC(O)(c2ccccc2)CC12CC2 (configuration not stated),31.62,"rising, single point"
COc1ccc(-n2c(=O)c(-c3ccc(Cl)cc3)nc3cnc(N4CCOCC4)nc32)cc1,0.5012,"rising, full curve"
CC(C)NC(=O)N1CCC2(CC1)CCN(C(=O)c1cccn1C)CC2,10,"falling, single point"
COc1ccc(-c2ccc(N)[n+](CCCC(=O)O)n2)cc1,2.512,"rising, single point"
CCOC(=O)CNC(=O)CSc1nnc(Cn2c(=O)sc3ccccc32)n1-c1ccccc1C,31.62,"rising, partial curve"
CCn1c2ccccc2c2nnc(SCC(=O)c3ccccc3)nc21,25.12,"falling, single point"
N=c1sccn1CC(=O)Nc1cccc(Oc2ccccc2)c1,2.512,"falling, single point"
COC(=O)COc1ccc(S(=O)(=O)Nc2ccc3c(c2)OCCO3)cc1Cl,19.95,"falling, single point"
CCC(=O)N1CCCc2cc(S(=O)(=O)N3CCN(c4ccccc4F)CC3)ccc21,19.95,"falling, single point"
CCN(C(=O)c1coc(=O)c2ccccc12)c1cc(OC)ccc1OC,31.62,"falling, single point"
Cc1nc2scc(-c3ccccc3)c2c(=O)n1/N=C/c1ccco1,0.3981,"rising, full curve, poor fit"
O=C(c1cccc(F)c1)N1CCC2(CC1)CCN(C(c1ccccc1)c1ccccc1)CC2,0.1,"falling, single point"
COC(=O)[C@@]1(Cc2ccccc2)[C@H]2c3cc(C(=O)N4CCCC4)n(Cc4ccc(OC)c(OC)c4)c3C[C@H]2CN1C(=O)c1ccccc1,19.95,"rising, partial curve"
CC(C)(C)c1nc(N2CCN(C(=O)c3ccco3)CC2)c2nnn(Cc3ccccc3Cl)c2n1,31.62,"falling, single point"

For reference, 2 entries once more:

compound,AC50 (µM),remark
COc1ccc(S(=O)(=O)c2ccc(OC)c(OC)c2)cc1OC,25.12,"rising, single point"
C=C(CC1([C@@H](NP(=O)(c2ccccc2)c2ccccc2)[C@H]2C[C@@H]2CCCC)CC1)c1ccccc1,3.162,"falling, single point"

From PubChem BioAssay record AID912 (NCATS, 2007).